From patent US20070212707A1, “CELL CYCLE MARKERS” (GE HEALTHCARE UK LIMITED, priority 2004, published 2007) come the findings set out here.

Sequences of proteins named here, by UniProt entry; tags and fusion partners are left off. A change or cut given only in a name is not applied to a line headed by its entry.
UniProt Q8NG08: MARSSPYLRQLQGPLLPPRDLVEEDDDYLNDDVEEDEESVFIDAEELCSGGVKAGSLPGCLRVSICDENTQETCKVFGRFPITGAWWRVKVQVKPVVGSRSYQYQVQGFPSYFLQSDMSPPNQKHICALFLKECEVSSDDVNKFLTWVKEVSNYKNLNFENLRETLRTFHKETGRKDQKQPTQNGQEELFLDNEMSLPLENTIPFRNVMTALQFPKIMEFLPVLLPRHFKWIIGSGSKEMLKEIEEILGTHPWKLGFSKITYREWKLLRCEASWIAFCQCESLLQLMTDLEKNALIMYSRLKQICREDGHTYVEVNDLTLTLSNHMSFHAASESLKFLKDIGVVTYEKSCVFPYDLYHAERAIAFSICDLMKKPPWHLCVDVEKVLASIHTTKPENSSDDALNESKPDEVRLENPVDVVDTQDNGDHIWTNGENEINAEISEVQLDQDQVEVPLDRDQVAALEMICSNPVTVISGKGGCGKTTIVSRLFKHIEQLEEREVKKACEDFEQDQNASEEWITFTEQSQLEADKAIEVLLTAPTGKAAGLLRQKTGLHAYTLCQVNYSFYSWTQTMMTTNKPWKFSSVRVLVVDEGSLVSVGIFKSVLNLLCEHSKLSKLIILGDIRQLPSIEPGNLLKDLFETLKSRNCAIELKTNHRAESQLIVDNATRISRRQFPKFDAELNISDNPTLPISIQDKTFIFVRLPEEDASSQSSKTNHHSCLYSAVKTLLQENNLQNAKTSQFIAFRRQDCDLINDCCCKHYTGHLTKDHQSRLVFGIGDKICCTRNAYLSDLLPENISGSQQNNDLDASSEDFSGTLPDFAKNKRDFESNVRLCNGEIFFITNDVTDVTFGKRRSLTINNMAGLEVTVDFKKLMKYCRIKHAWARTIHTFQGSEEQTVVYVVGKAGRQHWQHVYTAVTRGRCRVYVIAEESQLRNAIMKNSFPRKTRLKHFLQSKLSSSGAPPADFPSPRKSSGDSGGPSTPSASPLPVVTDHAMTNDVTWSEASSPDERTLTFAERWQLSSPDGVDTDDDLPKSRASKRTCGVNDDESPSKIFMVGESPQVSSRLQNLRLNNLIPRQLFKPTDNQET

Assay [1] deals with cyclin E (human) (UniProt P24864). In words: co-immunoprecipitation from U2OS cell extracts (FIG. 9).
Assay [2] has the same target. In words: co-immunoprecipitation with anti-FLAG agarose from transfected U2OS cell extracts, western blot with anti-cyclin E. On the technique in general: In western blotting, separated proteins are transferred to a membrane and probed.
The target is the same in assay [3]. Put plainly: co-immunoprecipitation with anti-FLAG agarose from transfected U2OS cell extracts, western blot.

These are yes or no findings as the source states them, for the method shown. Binding seen in cells or lysates may run through a third protein. Some binding calls cover weakened binding; strength is not graded here.

FLAG-HDHB (from UniProt Q8NG08 1-1087): the binding entry with cyclin E (human) [1] and with cyclin E (human) [2] was “binds” each time.
Take “FLAG-HDHB-S967A (from UniProt Q8NG08 1-1087)”: in the assay with cyclin E (human) [3], the binding entry was “binds”.
